Laboratory results taken from paper PMC8784505.
These are yes or no findings as the source states them, for the method shown. Binding seen in cells or lysates may run through a third protein. Some entries that bind do so weakly or less than the wild type. Where a sequence is shown, tags or fusion partners need not be part of it. Each block holds one binder with its values, some of them ahead of it.

Molecular target: T1, EGFP-CD151 fusion protein (hCD151 in pEGFP-C1) (human) (UniProt P48509)
T1 sequence: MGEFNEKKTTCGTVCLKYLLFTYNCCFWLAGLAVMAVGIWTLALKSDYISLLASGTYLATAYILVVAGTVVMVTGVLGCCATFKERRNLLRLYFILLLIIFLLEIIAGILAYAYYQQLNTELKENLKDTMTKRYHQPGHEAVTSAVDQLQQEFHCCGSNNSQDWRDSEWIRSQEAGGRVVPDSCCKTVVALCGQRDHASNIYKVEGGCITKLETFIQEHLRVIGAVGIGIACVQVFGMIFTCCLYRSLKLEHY
Test: co-IP; EGFP-CD151 precipitated with GFP Selector beads (1 h, 4 °C) from lysates of HEK293T, Caco2 or HK-2 cells; immunoblot for JAM-A and GFP

binding: binds
B1: endogenous JAM-A of Caco2 and HK-2 cells (protein, UniProt Q9Y624 28-299)
chain: SVTVHSSEPEVRIPENNPVKLSCAYSGFSSPRVEWKFDQGDTTRLVCYNNKITASYEDRVTFLPTGITFKSVTREDTGTYTCMVSEEGGNSYGEVKVKLIVLVPPSKPTVNIPSSATIGNRAVLTCSEQDGSPPSEYTWFKDGIVMPTNPKSTRAFSNSSYVLNPTTGELVFDPLSASDTGEYSCEARNGYGTPMTSNAVRMEAVERNVGVIVAAVLVTLILLGILVFGIWFAYSRGHFDRTKKGTSSKKVIYSQPSARSEGEFKQTSSFLV

binding: binds
B2: JAM-A in HEK293T cells (protein, UniProt Q9Y624 28-299)
chain: B1 chain
